Measured values from paper PMC12204631.
These are yes or no findings as the source states them, for the method shown. In cells and extracts the contact can be indirect. Here binding means that the protein was enriched with, or labelled near, the bait; the list need not be complete. Sequences can lack the tags named with a protein.

T1: 6HIS-HA-JHD2 (S. cerevisiae) (UniProt P47156)
T1 sequence: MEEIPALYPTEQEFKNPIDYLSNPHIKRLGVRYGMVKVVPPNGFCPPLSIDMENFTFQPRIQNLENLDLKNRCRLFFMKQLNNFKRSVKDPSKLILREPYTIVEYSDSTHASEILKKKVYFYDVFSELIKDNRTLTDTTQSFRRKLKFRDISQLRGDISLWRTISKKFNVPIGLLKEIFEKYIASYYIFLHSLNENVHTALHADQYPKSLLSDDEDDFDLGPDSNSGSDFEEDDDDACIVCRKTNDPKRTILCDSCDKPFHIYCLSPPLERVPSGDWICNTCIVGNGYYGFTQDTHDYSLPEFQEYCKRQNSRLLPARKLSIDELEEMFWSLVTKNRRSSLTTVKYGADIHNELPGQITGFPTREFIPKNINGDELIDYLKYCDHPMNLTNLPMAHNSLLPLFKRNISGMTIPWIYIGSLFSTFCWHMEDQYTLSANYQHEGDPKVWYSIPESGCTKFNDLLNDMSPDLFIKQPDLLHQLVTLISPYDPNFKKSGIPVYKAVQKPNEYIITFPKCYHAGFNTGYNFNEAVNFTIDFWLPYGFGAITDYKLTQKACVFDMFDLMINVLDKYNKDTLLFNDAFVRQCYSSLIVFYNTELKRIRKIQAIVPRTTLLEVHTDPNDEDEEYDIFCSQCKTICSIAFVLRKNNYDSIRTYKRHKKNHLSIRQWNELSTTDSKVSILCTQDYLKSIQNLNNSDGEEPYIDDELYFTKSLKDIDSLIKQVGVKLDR


target: T1, 6HIS-HA-JHD2 (S. cerevisiae); test: affinity purification with mass spectrometry; whole cell extracts of a wild-type strain with 6HIS-HA-JHD2 induced from the GAL1 promoter for 6 hours; Ni-NTA agarose and anti-HA agarose beads at 4°C for 24 hours; proteins found with the empty vector strain excluded

Binder | binding
SGT1 (protein, UniProt Q08446 1-395) MPVEKDLKTAYKALYDEKEPLKALHLYDEILKGSPTNLTALIFKAACLEKLYFGFSDWHSDATMENAKELLDKALMTAEGRGDRSKIGLVNFRYFVHFFNIKDYELAQSYFKKAKNLGYVDDTLPLWEDRLETKLNKKNKKQKDSTNKHTIKPVESIENRGDNNSSHSPISPLKIETAPQESPKFKIDWYQSSTSVTISLFTVNLPESKEQVNIYISPNDRRTLSISYQVPKSGSEFQYNAKLSHEVDPKAVSLKIFPKKLEITLSKIDSTQWKKLEEDILTESSRLSDEGKNSDSATRLLSAETASKERLSYPSSSKKKIDWSKLDIDEEADEEAGSADSFFQKLYAGADPDTKRAMMKSFIESNGTALSTDWEDVSKGTVKTSPPEGMEPKHW | binds
SLK19 (protein, UniProt Q08581 1-821) MNEVPTTPVRLILGQAQQREQNSENCSQERNPRTFNSEPDSSFNSPGSSQFVIHPHEPLEKEKDEKQDLDRSIDYGRSSALNNKNNANPLENIDINKMFDDKKSDSGTNDDKGGASTSDKHVLALNYSPIRVEMNSSEKRSDKNVDVDENDKEGSHINKKLKLQLESVPDLKQSSTKDIINDKEEIMSSPMAIDMIETNISPNKFIINDGVERNDSFNINTDTLKLENDINEKQQEEDFIKSNSNNVVNIDNAYKEKEDEENDITNSHINRLTPLYETSARESNSNEEGRNDYDDDNQLDIRHDNFQIVAKRNEELTDQIYHLNQMLNSLISKNESLSFQYEKLNKNHQLLIDLTNEKLDKLNTERESDIAKVEKFKKRIKELNTEIKVLNSNQKILQEKFDASITEVNHIKGEHENTVNTLQQNEKILNDKNVELENMKAELKGNNDKLSEYETTLNDLNSRIVQLNDKIESTDIVLKSKENELDNLKLSLKETLSISKDFNDSDLIGQINELISTKNNLQQKMDDLNNLNDDNLKVVQDKLIKNEETLKLKEAEIDSLNSEMDELKKQITSKDDEFKMWQSKYETVEDEAKIRNAEVTELNGDIEDLKESKLHLEETITELENKVHKLENECELEKQKFEKTSLELESLQLKNSNIQAEHIKELENLHENLISLQNELKISSDRITTLTKENEVLMEQNNNNNNSVTLSNDQKDRDDEKIKSLGKQVQDWKEKYEAKEKDTNKRLKLLAEDLYIQYSSKHEQKVKLLKKGYENKYQNKFDQLNLENKTLSEEIEQLNKQLSSEREEKQELLKLLENEKK | binds
SPC19 (protein, UniProt Q03954 1-165) MTDALEQSVLALEGTVSVLKDSVESLKCANEPSTNLASTMLQTKRVFRLVPEYDVERSKLDLIEEVEPLVRTLGDKLRKSMGRMQRELDTLQQTYELNDLRLKKNISMDDDDALNSPDMGQEYEGRDADDVVMMASSTNEELEELKKLKEKKKQLENKLEILKQK | binds
SPC34 (protein, UniProt P36131 1-295) MGESLDRCIDDINRAVDSMSTLYFKPPGIFHNAILQGASNKASIRKDITRLIKDCNHDEAYLLFKVNPEKQSVSRRDGKEGVFDYVIKRDTDMKRNRRLGRPGEKPIIHVPKEVYLNKDRLDLNNKRRRTATTSGGGLNGFIFDTDLIGSSVISNSSSGTFKALSAVFKDDPQIQRLLYALENGSVLMEEESNNQRRKTIFVEDFPTDLILKVMAEVTDLWPLTEFKQDYDQLYHNYEQLSSKLRFIKKEVLLQDDRLKTMSQYHPSSSHDVAKIIRKEKDEIRRLEMEIANLQE | binds
STU2 (protein, UniProt P46675 1-888) MSGEEEVDYTTLPLEERLTYKLWKARLEAYKELNQLFRNSVGDISRDDNIQIYWRDPTLFAQYITDSNVVAQEQAIVALNSLIDAFASSSLKNAHNITLISTWTPLLVEKGLTSSRATTKTQSMSCILSLCGLDTSITQSVELVIPFFEKKLPKLIAAAANCVYELMAAFGLTNVNVQTFLPELLKHVPQLAGHGDRNVRSQTMNLIVEIYKVTGNNSDLLEEILFKKLKPIQVKDLHKLFAKVGDEPSSSKMLFEWEKRELEKKRSQEEEARKRKSILSNDEGEYQIDKDGDTLMGMETDMPPSKQQSGVQIDTFSMLPEETILDKLPKDFQERITSSKWKDRVEALEEFWDSVLSQTKKLKSTSQNYSNLLGIYGHIIQKDANIQAVALAAQSVELICDKLKTPGFSKDYVSLVFTPLLDRTKEKKPSVIEAIRKALLTICKYYDPLASSGRNEDMLKDILEHMKHKTPQIRMECTQLFNASMKEEKDGYSTLQRYLKDEVVPIVIQIVNDTQPAIRTIGFESFAILIKIFGMNTFVKTLEHLDNLKRKKIEETVKTLPNFSIASGSTHSTIETNKQTGPMENKFLLKKSSVLPSKRVASSPLRNDNKSKVNPIGSVASASKPSMVAANNKSRVLLTSKSLATPKNVVANSTDKNEKLIEEYKYRLQKLQNDEMIWTKERQSLLEKMNNTENYKIEMIKENEMLREQLKEAQSKLNEKNIQLRSKEIDVNKLSDRVLSLENELRNMEIELDRNKKRNDTNLQSMGTISSYSIPSSTVSSNYGVKSLSSALPFKEEEDVRRKEDVNYERRSSESIGDLPHRVNSLNIRPYRKNGTGVSSVSDDLDIDFNDSFASEESYKRAAAVTSTLKARIEKMKAKSRREGTTRT | binds
BUD23 (protein, UniProt P25627 1-275) MSRPEELAPPEIFYNDSEAHKYTGSTRVQHIQAKMTLRALELLNLQPCSFILDIGCGSGLSGEILTQEGDHVWCGLDISPSMLATGLSRELEGDLMLQDMGTGIPFRAGSFDAAISISAIQWLCNADTSYNDPKQRLMRFFNTLYAALKKGGKFVAQFYPKNDDQVDDILQSAKVAGFSGGLVVDDPESKKNKKYYLVLSSGAPPQGEEQVNLDGVTMDEENVNLKKQLRQRLKGGKDKESAKSFILRKKELMKRRGRKVAKDSKFTGRKRRHRF | binds
CRG1 (protein, UniProt P38892 1-291) MPKTSYLNKNFESAHYNNVRPSYPLSLVNEIMKFHKGTRKSLVDIGCGTGKATFVVEPYFKEVIGIDPSSAMLSIAEKETNERRLDKKIRFINAPGEDLSSIRPESVDMVISAEAIHWCNLERLFQQVSSILRSDGTFAFWFYIQPEFVDFPEALNVYYKYGWSKDYMGKYLNDNQREILLNYGGEKLRSLLSDRFGDIEVTIYSPSDPNASTVTAENSQFLWRAAITLNQFKEFVKSWSIYTSWARDNPSKPDIADIFINELKEICHCEDLNVPLKIEWSTFYYLCRKRE | binds
COQ5 (protein, UniProt P49017 20-307) SRCFTQAHRACKEEEVNSPLSSAAEQPEQKYTHFGSKTVLKSTKQKLVGDVFSSVANRYDLMNDVMSLGIHRLWKDHFINKLDAGKRPNSTTPLNFIDVAGGSGDIAFGLLDHAESKFGDTESTMDIVDINPDMLKEGEKRAMEQGKYFKDPRVRFLVSNGEKLEEIDSDSKDIYTVSFGIRNFTDIQKGLNTAYRVLKPGGIFYCLEFSKIENPLMDFAYQQWAKVLPVMGSMIANDYDSYQYLVESIERFPDQETFKSMIEKAGFKSAGYESLTFGICAIHWGIKV | binds
DAM1 (protein, UniProt P53267 1-343) MSEDKAKLGTTRSATEYRLSIGSAPTSRRSSMGESSSLMKFADQEGLTSSVGEYNENTIQQLLLPKIRELSDSIITLDSNFTRLNFIHESLADLNESLGSLLYGIMSNSWCVEFSQAPHDIQDDLIAIKQLKSLEDEKNNLVMELSNMERGIKRKKDEQGENDLAKASQNKQFNQPLFPSSQVRKYRSYDNRDKRKPSKIGNNLQVENEEDYEDDTSSEASFVLNPTNIGMSKSSQGHVTKTTRLNNNTNSKLRRKSILHTIRNSIASGADLPIENDNVVNLGDLHPNNRISLGSGAARVVNGPVTKNRNSMFSGRAERKPTESRHSVAKKTEKKINTRPPFR | binds
ECM31 (protein, UniProt P38122 1-312) MNIMKRQLCTSSKRFFSTAKNVVKYNTIQDIRNKYFTGTPLSMCTAYDFITATWVNKANCDLLLVGDSLAMTSLGYDSTITLSLNEFKYHVASVCRAEGSSMVVVDMPFGTFESGISDGLKNAIDIMKLDSKVTSVKVEVGSYTKDKYAMKFIEELCSRGIPVMAHIGLTPQKVHSLGGYKVQGSKSLLQMQELYETAMQLQKIGCWSILIECVPHKMAQFITSKLSVPTIGIGAGNGTSGQVLVISDLLGMQGDSVPKFVKQAVNMTDIATQGLKEYIASVEDRTFPERGTHTFKVKEDLWNEFLSSINEK | binds
EFM1 (protein, UniProt P38732 1-585) MITQTELDNCLQWAQNNGAFIDPKISFRITEDAGVSAFVNEKFSPKPDQALIRVPETLLITSQQALSEFSQAANERSLLNSVTQLYLSKLKFGTDAVHLKSFYKPYLDVLPLHLPQPYFWSTDEVMNLHGTDVYLTMRDTLNKLVKEWRMLFQALSIEHSSQDKQFLSLFQENKDSAVVPLEQFCAHINGCKLEDSEWNSFVAYLWSYCIFNSRAFPRVILGRAGTDRTNLNEGFLYPIVDLLNHKNDVPVRWEMNEQNELCFMSQTTTFSAQDELFNNYGNISNEKCLLNYGFWDSSNKFDFSRLTLKLPSTLVSGLPVDFNKSGNFVTDDGETTILQFSLKISEPLPPVLLALFAYLSKLKSEETPTVRSVLEGIDQLTSVVSQRLLFYKNFKIKTSSTQKLRPHVIKLIKLYYQDNKKILNATTEKLSVLQKKIYSNNKEFSLSFKTIFKNDKIFANSLLLVFGAINYEDLITKDCLNDALLLWIVKLINDKSNNQGGFIKQTFKEVSDSIVIEKEDVMEFLPFYKKYFPNLSERIPEIYSVGDWGIRQFIVADTAIDRLVWIRKSNKEPIFLMKKAYDLQI | binds
HMT1 (protein, UniProt P38074 1-348) MSKTAVKDSATEKTKLSESEQHYFNSYDHYGIHEEMLQDTVRTLSYRNAIIQNKDLFKDKIVLDVGCGTGILSMFAAKHGAKHVIGVDMSSIIEMAKELVELNGFSDKITLLRGKLEDVHLPFPKVDIIISEWMGYFLLYESMMDTVLYARDHYLVEGGLIFPDKCSIHLAGLEDSQYKDEKLNYWQDVYGFDYSPFVPLVLHEPIVDTVERNNVNTTSDKLIEFDLNTVKISDLAFKSNFKLTAKRQDMINGIVTWFDIVFPAPKGKRPVEFSTGPHAPYTHWKQTIFYFPDDLDAETGDTIEGELVCSPNEKNNRDLNIKISYKFESNGIDGNSRSRKNEGSYLMH | binds
